PubChem BioAssay AID504793 | Drosophila RNAi Screening Center | 2011

Purpose: 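Knock-downs allowing continued mitosis even though DNA is damaged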 (primary screen)
System: Drosophila S2R+ cells
Reagent: long dsRNA against Drosophila genes, about 0.25 µg dsRNA per well
Time to read-out: 4 days of dsRNA, then 4 hours of drug before read-out
Treatment: doxorubicin 0.5 µM for 4 hours to cause double-strand breaks, in cells also given a low, harmless dose of dsRNA against nbs to sensitise the assay
Measurement: 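Per-well count of mitotic cells stained for phospho-histone H3 after doxorubicin exposure, used as mitotic index; counts are raw and not normalised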
Scale: mitotic cells: higher = more cells in mitosis, weaker G2 arrest
Hit rule: 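a call needs confirmation in secondary tests, with other dsRNAs and a check of mitotic timing without damage, not just a high primary count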
Calls: active = confirmed in follow-up tests; inactive = not confirmed
In all, the deposit lists about 23,000 reagents; shown is a random part of those with a known target gene and a result. In the full data, 62 (0.27%) are marked active. 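Calls come from follow-up tests whose scores are not deposited, so confirmed genes may have low counts here; counts are not normalised per plate.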 Raw values are not corrected between plates. Reagents against one gene are numbered here. Reagent sequences are not shown.

For Abcd1 (ATP binding cassette subfamily D member 1) the deposit lists mitotic cells, replicate 1 = 8; inactive.
For Nek2 #1, the values are mitotic cells, replicate 1 = 18; inactive.
With knock-down of Nek2 #2 the results were mitotic cells, replicate 1 = 4; inactive.
Knock-down of Polr2M (RNA polymerase II subunit M) #1 resulted in: mitotic cells, replicate 1 = 13; inactive.
Silencing of Polr2M (RNA polymerase II subunit M) #2 resulted in: mitotic cells, replicate 1 = 9; inactive.
Knock-down of Grip (Glutamate receptor interacting protein) #1 resulted in: mitotic cells, replicate 1 = 5; inactive.
For Grip (Glutamate receptor interacting protein) #2 the deposit lists mitotic cells, replicate 1 = 5; inactive.
Knock-down of r-l (rudimentary-like) #1 gave: mitotic cells, replicate 1 = 24; inactive.
Silencing of r-l (rudimentary-like) #2 gave: mitotic cells, replicate 1 = 14; inactive.
After knock-down of CG9643 #1, the screen gave mitotic cells, replicate 1 = 2; inactive.
Knock-down of CG9643 #2 resulted in: mitotic cells, replicate 1 = 5; inactive.
For Ran-like, the values are mitotic cells, replicate 1 = 5; inactive.
With knock-down of karr, the record shows mitotic cells, replicate 1 = 3; inactive.
Silencing of Dredd (Death related ced-3/Nedd2-like caspase) gave: mitotic cells, replicate 1 = 6; inactive.
With knock-down of out (outsiders) #1, the screen gave mitotic cells, replicate 1 = 7; inactive.
Knock-down of out (outsiders) #2 resulted in: mitotic cells, replicate 1 = 12; inactive.
Rx (Retinal Homeobox) #1 gave mitotic cells, replicate 1 = 4; inactive.
Depletion of Rx (Retinal Homeobox) #2 gave: mitotic cells, replicate 1 = 7; inactive.
Knock-down of Rx (Retinal Homeobox) #3 resulted in: mitotic cells, replicate 1 = 6; inactive.
Silencing of CG8543 #1 came out at: mitotic cells, replicate 1 = 5; inactive.
With knock-down of CG8543 #2 the results were mitotic cells, replicate 1 = 9; inactive.
Against CG8543 #3, the entry reads mitotic cells, replicate 1 = 8; inactive.
CG4686 scored mitotic cells, replicate 1 = 7; inactive.

Reformatted: results already given
Target gene,dsRNA no.,"mitotic cells, replicate 1",Call
r-l (rudimentary-like),2,14,inactive
CG9643,1,2,inactive
CG9643,2,5,inactive
